Laboratory results reported in PubChem BioAssay AID1671190 (National Center for Advancing Translational Sciences (NCATS), 2021).
Out of some 580,000 compounds screened, about 6,100 (1.1%) were called active. The shares of active, inactive and inconclusive entries below differ from those in the screen. Calls come from the whole dose curve; as a rule, active = well fitted inhibition curve with a large enough effect; inconclusive = small, poorly fitted or top-dose-only effect, or another doubt; inactive = no such curve, though single readings can be large or run the other way. Potencies beside an inconclusive call are fits to weak or partial responses and may not hold up.

Chains of the proteins cited; added tags and fusions are not shown. Lines headed by an entry give the natural chain unless they say otherwise; changes in a name come on top.
UniProt P18054: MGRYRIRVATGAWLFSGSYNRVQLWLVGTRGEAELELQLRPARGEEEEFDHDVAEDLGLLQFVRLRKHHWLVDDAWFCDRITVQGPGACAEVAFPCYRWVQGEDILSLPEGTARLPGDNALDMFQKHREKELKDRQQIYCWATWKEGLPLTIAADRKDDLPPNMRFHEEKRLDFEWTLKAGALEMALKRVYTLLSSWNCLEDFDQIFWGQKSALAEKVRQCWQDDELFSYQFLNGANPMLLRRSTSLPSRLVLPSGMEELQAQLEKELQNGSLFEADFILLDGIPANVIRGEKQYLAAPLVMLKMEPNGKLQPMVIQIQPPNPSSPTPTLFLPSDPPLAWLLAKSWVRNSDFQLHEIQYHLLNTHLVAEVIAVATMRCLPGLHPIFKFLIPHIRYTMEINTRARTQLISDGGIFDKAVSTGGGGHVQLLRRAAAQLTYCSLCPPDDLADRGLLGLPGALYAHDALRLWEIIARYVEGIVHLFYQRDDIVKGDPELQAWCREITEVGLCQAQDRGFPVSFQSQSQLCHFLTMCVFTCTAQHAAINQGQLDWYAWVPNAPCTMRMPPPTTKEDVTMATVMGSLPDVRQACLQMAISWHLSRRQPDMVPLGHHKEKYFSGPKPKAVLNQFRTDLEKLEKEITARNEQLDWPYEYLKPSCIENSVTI

Molecular target: Polyunsaturated fatty acid lipoxygenase ALOX12 (Homo sapiens) (UniProt P18054)
Assay: Primary qHTS assay for inhibitors of human arachidonate 12S-lipoxygenase (ALOX12): Round 2
Details: purified 12hLO, xylenol orange hydroperoxide absorbance; series mostly up to 108 µM
Outline: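 Purified human 12hLO at 150 nM in 25 mM Hepes, 0.01% Triton X-100, pH 7.0, preincubated 15 min at room temperature with compound. Reaction started with 40 uM arachidonic acid, 30 min at room temperature. Hydroperoxide measured by Fe-xylenol orange, 573/405 nm absorbance ratio.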
Potency is the fitted concentration of half-maximal effect.

Q: Cc1nc(C)c(C(=O)N2CC(c3nnc(-c4ccncc4)o3)C3(CCOCC3)C2)s1 (stereo not drawn) was tested. Which Potency did it give?
A: inconclusive: 10 µM [inhibitor, partial curve, poor fit]

Q: For O=c1[nH]c2ccccc2nc1-c1nnnn1Cc1ccccc1, which Potency is on record?
A: inconclusive: 89.1 µM [inhibitor, single point]

Q: With O=C(O)Cc1nc(-c2cccnc2)sc1-c1ccc(Br)cc1 as the compound, how does the Potency read?
A: active: 28.2 µM

Q: Which Potency does the source give for Cn1nccc1C(=O)Nc1sc2c(c1C#N)CCCCC2 here?
A: inconclusive: 50.1 µM [inhibitor, partial curve, poor fit]

Q: How did the Potency turn out when COC(=O)/C=C1\SC(=NC(=O)c2ccc(-c3ccccc3)cc2)NC1=O was run?
A: inconclusive: 39.8 µM [inhibitor, partial curve, poor fit]

Q: Which Potency does the source give for COc1ccc([N+](=O)[O-])cc1NC(=O)C(C)OC(=O)CSC(C)C(=O)Nc1cc(C)on1 (stereo not drawn) here?
A: inconclusive: 35.5 µM [inhibitor, single point]

Q: How did the Potency turn out when Cc1ccccc1Oc1ncccc1CNC(=O)CCn1cnnc1 was run?
A: inactive

Q: How did the Potency turn out when CC(C)C[C@@H](COc1ccccc1)N1CCN(CCc2ccccc2)CCC1=O was run?
A: inactive

Q: For CCCCc1ccc(S(=O)(=O)NC(=O)C2(C)CCN2C(=O)Cc2ccccc2)cc1 (stereo not drawn), which Potency is on record?
A: inconclusive: 44.7 µM [inhibitor, partial curve, poor fit]

Q: How did the Potency turn out when Cn1c(=O)c2c(ncn2CCC(=O)N(Cc2ccc(F)cc2)C2CC2)n(C)c1=O was run?
A: inconclusive: 39.8 µM [inhibitor, partial curve, poor fit]

Q: For Cc1ccc(-c2nc(S(=O)(=O)c3ccc(C)cc3)c(SCC(=O)NCC3CCCO3)o2)cc1 (stereo not drawn), which Potency is on record?
A: inconclusive: 5.62 µM [inhibitor, full curve, poor fit]

Q: How did the Potency turn out when COc1ccc(C2OC3=C(Nc4cc(C)c(C)cc4N3)C2=O)cc1 (stereo not drawn) was run?
A: inconclusive: 3.16 µM [inhibitor, full curve, poor fit]

Q: Which Potency does the source give for COc1ccc(OCCNC(=O)Cc2c[nH]c3ccccc23)cc1 here?
A: inconclusive: 89.1 µM [inhibitor, single point]

Q: With O=C(O)c1ccc2c3c(cccc13)C(=O)N(c1ccccc1)C2=O as the compound, how does the Potency read?
A: inactive

Q: How did the Potency turn out when COc1ccc2c(C)c(CCC(=O)Nc3ccc(F)cc3)c(=O)oc2c1 was run?
A: inconclusive: 31.6 µM [inhibitor, partial curve, poor fit]

Q: With O=C(O)c1cc(-c2ccc3c(c2)OCCO3)cc(S(=O)(=O)N2CCOCC2)c1 as the compound, how does the Potency read?
A: inactive

Q: With COc1ccc(CCNC(=O)c2ccc(CS(=O)(=O)c3ccc(Cl)cc3)o2)cc1OC as the compound, how does the Potency read?
A: inactive

Q: Which Potency does the source give for O=S(=O)(O)c1nc2ccccc2n1Cc1ccc(Cl)cc1 here?
A: inconclusive: 17.8 µM [inhibitor, partial curve, poor fit]

Q: Cc1nc2cc(NC(=O)c3cc(S(=O)(=O)Nc4ccc(C)c(Cl)c4)ccc3Cl)ccc2o1 was tested. Which Potency did it give?
A: inconclusive: 35.5 µM [inhibitor, partial curve]

Q: With CNC(=O)NC(=O)C(C)N(C)CCCCc1ccccc1 (stereo not drawn) as the compound, how does the Potency read?
A: inactive

Q: How did the Potency turn out when CCOc1ccc(NC(=O)CN2C(=O)NC3(CCOCC3)C2=O)cc1 was run?
A: inconclusive: 10 µM [inhibitor, partial curve, poor fit]

Q: For COc1ccc(/C=C2/SC(c3ccc(C)cc3)=NC2=O)cc1OC, which Potency is on record?
A: inconclusive: 4.47 µM [inhibitor, full curve, poor fit]

Q: How did the Potency turn out when CC1(C)C(C=C(Cl)Cl)C1C(=O)Nc1ccc([N+](=O)[O-])cc1 (stereo not drawn) was run?
A: inconclusive: 70.8 µM [inhibitor, partial curve, poor fit]

Q: How did the Potency turn out when COc1ccc(C2/C=C\CN3CCC[C@H]3C(=O)N2Cc2ccc(F)cc2)cc1 (stereo partly drawn) was run?
A: inconclusive: 70.8 µM [inhibitor, partial curve, poor fit]

Q: For C=CCNC1=C(Cl)C(=O)c2ccccc2C1=O, which Potency is on record?
A: inactive

Q: For O=S(=O)(/N=C(/Nc1ccccc1)c1ccccc1O)c1ccccc1, which Potency is on record?
A: inconclusive: 126 µM [inhibitor, partial curve, poor fit]

Q: How did the Potency turn out when Cc1ccc(S(=O)(=O)N(C)C[C@H]2Oc3ncc(-c4ccccc4)cc3C(=O)N([C@@H](C)CO)C[C@@H]2C)cc1 was run?
A: inconclusive: 126 µM [inhibitor, single point]

Q: How did the Potency turn out when CCc1ccc(-c2nc(CS(=O)CC(=O)O)c(C)o2)cc1 (stereo not drawn) was run?
A: inconclusive: 100 µM [inhibitor, partial curve, poor fit]

Q: How did the Potency turn out when Cc1ccc(-c2ccc3nnc(CNC(=O)CNC(=O)c4ccccc4)n3n2)cc1 was run?
A: inactive

Q: How did the Potency turn out when C[C@@H]1C[C@H](C)CN(C(C(=O)O)c2cn(C)c3ccc(C(=O)O)cc23)C1 (stereo partly drawn) was run?
A: inconclusive: 31.6 µM [inhibitor, single point]

Q: With Cc1nn(C(C)c2n[nH]c(=S)n2-c2cccc(Cl)c2)c(C)c1[N+](=O)[O-] (stereo not drawn) as the compound, how does the Potency read?
A: inconclusive: 79.4 µM [inhibitor, partial curve, poor fit]

Q: For COc1ccc(F)cc1C(=O)C(=O)O, which Potency is on record?
A: active: 8.91 µM

Q: How did the Potency turn out when CCOC(=O)C1CCCN(CC(=O)Nc2nccs2)C1 (stereo not drawn) was run?
A: inconclusive: 100 µM [inhibitor, single point]

Q: Which Potency does the source give for COc1ccc(Cl)cc1NC(=O)c1ccc(F)c(S(=O)(=O)N2CCCC2)c1 here?
A: inconclusive: 126 µM [inhibitor, single point]

Q: Which Potency does the source give for Cc1ccc(N(C(C)C(=O)NCc2ccccc2)S(C)(=O)=O)cc1C (stereo not drawn) here?
A: inconclusive: 126 µM [inhibitor, partial curve, poor fit]

Q: How did the Potency turn out when COC(=O)CNC(=O)C(=O)OC was run?
A: inconclusive: 7.08 µM [inhibitor, partial curve, poor fit]

Q: How did the Potency turn out when O=C(Nc1ccc(F)cc1F)c1ccn(Cn2nnc(-c3ccccc3)n2)n1 was run?
A: inconclusive: 89.1 µM [inhibitor, single point]

Q: Cc1nc(CN2C[C@H](C(=O)Nc3ccccc3)C[C@@H]2c2ccc(F)cc2)cs1 was tested. Which Potency did it give?
A: inconclusive: 39.8 µM [inhibitor, full curve, poor fit]

Q: Which Potency does the source give for Cc1ccc(C(=O)N/C(=C\c2ccco2)C(=O)NCCN2CCCCC2)cc1C here?
A: inconclusive: 70.8 µM [inhibitor, partial curve, poor fit]

Q: How did the Potency turn out when O=S(=O)(NCC1(COc2cnccn2)C[C@@H](O)[C@@H](O)C1)c1ccc(Cl)cc1 (stereo partly drawn) was run?
A: inconclusive: 15.8 µM [inhibitor, full curve]

Q: Which Potency does the source give for CC(C)(C)c1ccccc1NC(=O)c1cc(-c2ccncc2)nc2ccccc12 here?
A: inconclusive: 39.8 µM [inhibitor, partial curve, poor fit]

Q: For COc1cc(CNC(=O)[C@H]2CCC[C@H]2NC(=O)c2ccc(OC)nc2)cc(OC)c1, which Potency is on record?
A: inactive

Q: c1ccc(NCc2cccc3ccccc23)nc1 was tested. Which Potency did it give?
A: inconclusive: 31.6 µM [inhibitor, single point]

Q: Which Potency does the source give for Cc1ccc(NC(=O)c2cccc(C(=O)OC(C)C)n2)c(Br)c1 here?
A: inactive

Q: For NC(=O)CC(NC(=O)Cc1ccc(Cl)cc1)c1ccc(NC2CC3CCC2C3)c([N+](=O)[O-])c1 (stereo not drawn), which Potency is on record?
A: inconclusive: 44.7 µM [inhibitor, partial curve, poor fit]

Q: For Cc1ccc(NC(=O)CCc2nc(C(C)(C)C)no2)nc1, which Potency is on record?
A: inactive

Q: CCC1(C)Cc2ccccc2-c2[nH][nH]c(=O)c21 (stereo not drawn) was tested. Which Potency did it give?
A: inconclusive: 50.1 µM [inhibitor, partial curve, poor fit]

Q: CC1=C/C(=N\NC(=S)NCCc2ccccc2)CC(C)(C)C1 was tested. Which Potency did it give?
A: active: 4.47 µM

Q: How did the Potency turn out when Cc1nn(-c2ccccc2)c(C)c1C(=O)OCC(=O)NC12CC3CC(CC(C3)C1)C2 was run?
A: inconclusive: 63.1 µM [inhibitor, partial curve, poor fit]

Q: For CCOC(=O)N1CCN(c2c(N3CC=C(c4ccccc4)CC3)c(=O)c2=O)CC1, which Potency is on record?
A: inconclusive: 17.8 µM [inhibitor, partial curve, poor fit]

Q: For Clc1ccccc1N=C1SCCS1, which Potency is on record?
A: inconclusive: 126 µM [inhibitor, single point]

Q: Which Potency does the source give for COc1ccc(N2CCC(CNC(=O)Nc3ccccc3)C2)cc1 (stereo not drawn) here?
A: inconclusive: 44.7 µM [inhibitor, partial curve, poor fit]

Q: With COC(=O)Cc1[nH]nc2c1C(c1cc(OC)c(OC)c(OC)c1)C(C#N)=C(N)O2 (stereo not drawn) as the compound, how does the Potency read?
A: inactive

Q: With N=c1ccn2c(n1)O[C@H]1[C@@H](O)[C@@H](CO)O[C@H]12 as the compound, how does the Potency read?
A: inconclusive: 21.7 µM [inhibitor, single point]

Q: Which Potency does the source give for COc1ccc(-c2ccc3onc(C)c3n2)cc1OC here?
A: inconclusive: 28.2 µM [inhibitor, full curve, poor fit]

Q: With O=C1NC2(CCN(C(=O)c3ccc(Cl)cc3)CC2)COc2ccccc21 as the compound, how does the Potency read?
A: inconclusive: 89.1 µM [inhibitor, single point]

Q: How did the Potency turn out when Cc1cc(=O)oc2c(C)c(OCC(=O)N3CCN(c4cccc(Cl)c4)CC3)ccc12 was run?
A: inconclusive: 7.94 µM [inhibitor, full curve, poor fit]

Q: For Cc1cc(/C=c2\sc3nc4ccccc4n3c2=O)c(C)n1-c1ccc(C(=O)O)cc1, which Potency is on record?
A: inconclusive: 35.5 µM [inhibitor, partial curve]

Q: CCCCc1ccc(NC(=O)Cn2cnc3c(oc4ccccc43)c2=O)cc1 was tested. Which Potency did it give?
A: inconclusive: 141 µM [inhibitor, partial curve, poor fit]

Q: How did the Potency turn out when Cn1c2ccccc2c(=O)c2cc(C#Cc3ccccn3)ccc21 was run?
A: inconclusive: 3.98 µM [inhibitor, full curve, poor fit]

Q: CCCCc1nnc(NC(=O)c2cc(=O)[nH]c3ccccc23)s1 was tested. Which Potency did it give?
A: inactive

Q: With N#Cc1c(NCCN)nc(-c2ccccc2)c2c1CCCC2 as the compound, how does the Potency read?
A: inconclusive: 50.1 µM [inhibitor, partial curve, poor fit]

Q: O=C(CN1CCN(C(=O)c2ccccc2)CC1)Nc1cc(S(=O)(=O)N2CCCC2)ccc1Cl was tested. Which Potency did it give?
A: inactive
